In the supplement of paper PMC4604168 (melanoma cell lines):
This is one part of the list. Single values are uncertain, as repeats are few or missing.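 The apoptosis fraction was the count of cleaved-PARP antibody-stained nuclei relative to all DNA-stained nuclei, imaged in 1,536-well plates. Screening doses were set so most cells survived, and baseline and induced cleaved-PARP levels vary greatly across cell lines.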

How the values were obtained:
Assay in all cases: cleaved PARP positive nuclei fraction relative to DMSO control; melanoma cells; higher = more apoptosis
Settings in all cases: library dose: low library concentration; 72 h
MZ2-MEL = test system: MZ2-MEL
MeWo = test system: MeWo
RPMI7951 = test system: RPMI7951
RVH-421 = test system: RVH-421
SkMel28 = test system: SkMel28
SkMel30 = test system: SkMel30
SkMel5 = test system: SkMel5
UACC257 = test system: UACC257
UACC62 = test system: UACC62
WM115 = test system: WM115
WM1716 = test system: WM1716
WM1745 = test system: WM1745
WM3526 = test system: WM3526
WM3619 = test system: WM3619
WM451Lu = test system: WM451Lu

| SMILES | cleaved PARP positive nuclei fraction (MZ2-MEL) [%] | cleaved PARP positive nuclei fraction (MeWo) [%] | cleaved PARP positive nuclei fraction (RPMI7951) [%] | cleaved PARP positive nuclei fraction (RVH-421) [%] | cleaved PARP positive nuclei fraction (SkMel28) [%] | cleaved PARP positive nuclei fraction (SkMel30) [%] | cleaved PARP positive nuclei fraction (SkMel5) [%] | cleaved PARP positive nuclei fraction (UACC257) [%] | cleaved PARP positive nuclei fraction (UACC62) [%] | cleaved PARP positive nuclei fraction (WM115) [%] | cleaved PARP positive nuclei fraction (WM1716) [%] | cleaved PARP positive nuclei fraction (WM1745) [%] | cleaved PARP positive nuclei fraction (WM3526) [%] | cleaved PARP positive nuclei fraction (WM3619) [%] | cleaved PARP positive nuclei fraction (WM451Lu) [%] |
| --- | --- | --- | --- | --- | --- | --- | --- | --- | --- | --- | --- | --- | --- | --- | --- |
| Cc1nc(Nc2ncc(C(=O)Nc3c(C)cccc3Cl)s2)cc(N2CCN(CCO)CC2)n1 [dasatanib] + COC(=O)c1sccc1S(=O)(=O)Nc1ccc(Nc2ccccc2)cc1OC [GSK0660] (first compound 0.004 µM, partner dose 1 µM) | 126 | 106 | 113 | 110 | 159 | 37.4 | 151 | 114 | 200 | 108 | 85.8 | 164 | 139 | 82.6 | 94.9 |
| Cc1cc(N2CCOCC2)cc2[nH]c(-c3c(NC[C@@H](O)c4cccc(Cl)c4)cc[nH]c3=O)nc12 + COc1ccc(-c2ccc3c(N4CCOCC4)nc(N4C[C@@H](C)O[C@@H](C)C4)nc3n2)cc1CO [KU0063794] (first compound 0.2 µM, partner dose 0.02 µM) | 167 | 40.8 | 83 | 85 | 98.3 | 661 | 61.4 | 149 | 40.9 | 172 | 82.7 | 146 | 71.9 | 96.8 | 30.2 |
| C#Cc1cccc(Nc2ncnc3cc(OCCOC)c(OCCOC)cc23)c1 [erlotinib] + O=C(O)C(=O)Nc1sc2c(c1C(=O)O)CCNC2 [TCS401] (first compound 0.8 µM, partner dose 1.66667 µM) | 215 | 51.1 | 176 | 61.4 | 165 | 28.7 | 64.1 | 166 | 55.2 | 233 | 282 | 133 | 78.4 | 84.3 | 26.4 |
| OCCn1cc(-c2cnc3nnn(Cc4ccc5ncccc5c4)c3n2)cn1 + Cc1cc([N+](=O)[O-])ccc1NS(=O)(=O)c1cc(Cl)ccc1Cl [FH535] (first compound 1 µM, partner dose 1 µM) | 72.2 | 74.9 | 82.2 | 112 | 84 | 45 | 79.2 | 103 | 106 | 132 | 53.7 | 114 | 70.4 | 80.4 | 164 |
| O=C(CCCCCCC(=O)Nc1ccccc1)NO [vorinostat] + O=C(Nc1ccccc1)c1cc([N+](=O)[O-])ccc1Cl [GW9662] (first compound 0.08 µM, partner dose 2 µM) | 120 | 207 | 151 | 63.4 | 161 | 102 | 61.7 | 84.9 | 141 | 95.7 | 57.2 | 96.3 | 134 | 95.4 | 64.3 |
| Nc1cccc2c1CN(C1CCC(=O)NC1=O)C2=O (stereo not given) [lenalidomide] + O=C(Nc1ccccc1)c1cc([N+](=O)[O-])ccc1Cl [GW9662] (first compound 1 µM, partner dose 2 µM) | 183 | 55.4 | 83.4 | 157 | 227 | 86.6 | 154 | 57 | 133 | 177 | 119 | 101 | 67.3 | 118 | 36.3 |
| NC(=O)Nc1cc(-c2cccc(F)c2)sc1C(=O)N[C@H]1CCCNC1 + Cc1cc([N+](=O)[O-])ccc1NS(=O)(=O)c1cc(Cl)ccc1Cl [FH535] (first compound 0.02 µM, partner dose 1 µM) | 92.8 | 119 | 88.2 | 47.8 | 59.3 | 54.5 | 119 | 41.5 | 136 | 85.1 | 120 | 88 | 40.1 | 388 | 126 |
| C[C@@H]1CCN(C(=O)CC#N)C[C@@H]1N(C)c1ncnc2[nH]ccc12 + COc1ccc2c(c1)CCC1C2CCC2(C)C(NCCCCCCN3C(=O)C=CC3=O)CCC12 [U73122] (first compound 1 µM, partner dose 0.4 µM) | 112 | 19.2 | 42.5 | 16.5 | 145 | 124 | 68.3 | 73.6 | 62.2 | 215 | 158 | 147 | 64 | 76.1 | 239 |
| Cn1c(Nc2ccc(C(F)(F)F)cc2)nc2cc(Oc3ccnc(-c4ncc(C(F)(F)F)[nH]4)c3)ccc21 + Oc1nc(-c2ccc(C(F)(F)F)cc2)nc2c1CSCC2 [XAV939] (first compound 0.08 µM, partner dose 2 µM) | 177 | 165 | 63.3 | 277 | 192 | 88.6 | 288 | 1370 | 208 | 740 | 427 | 187 | 145 | 121 | 305 |
| CC(C)(C)c1cnc(CSc2cnc(NC(=O)C3CCNCC3)s2)o1 + COc1ccc(COc2ccc(Cc3cnc(N)nc3N)cc2OC)cc1 [GW2580] (first compound 0.01 µM, partner dose 1 µM) | 329 | 215 | 50.1 | 68.4 | 107 | 99.2 | 220 | 42.9 | 28 | 80.5 | 91.1 | 117 | 55.3 | 86 | 122 |
| C[C@@H]1CCN(C(=O)CC#N)C[C@@H]1N(C)c1ncnc2[nH]ccc12 + O=c1cc(-c2cccc3c2Sc2ccccc2S3)oc(N2CCOCC2)c1 [KU55933] (first compound 1 µM, partner dose 1 µM) | 148 | 51.7 | 77.7 | 70 | 77.5 | 23.1 | 27.1 | 57.3 | 78.4 | 593 | 52.3 | 93.4 | 612 | 95 | 46.6 |
| COc1cc(Nc2ncc(F)c(Nc3ccc4c(n3)NC(=O)C(C)(C)O4)n2)cc(OC)c1OC [Tamatinib] + N#Cc1c(O)c2c(-c3ccc(-c4ccccc4O)cc3)csc2[nH]c1=O [A769662] (first compound 0.4 µM, partner dose 2 µM) | 124 | 237 | 84.1 | 97.9 | 182 | 20.9 | 38.6 | 146 | 88.5 | 108 | 88.6 | 114 | 62.3 | 83.7 | 77.7 |
| C=CCn1c(=O)c2cnc(Nc3ccc(N4CCN(C)CC4)cc3)nc2n1-c1cccc(C(C)(C)O)n1 + O=C(O)C(=O)Nc1sc2c(c1C(=O)O)CCNC2 [TCS401] (first compound 0.02 µM, partner dose 1.66667 µM) | 227 | 58.2 | 86.5 | 49.4 | 168 | 41.3 | 91.6 | 93 | 255 | 50.8 | 51.5 | 136 | 335 | 109 | 57.8 |
| OCCn1cc(-c2cnc3nnn(Cc4ccc5ncccc5c4)c3n2)cn1 + COc1cc(N2CCC(N3CCN(C)CC3)CC2)ccc1Nc1ncc(Cl)c(Nc2ccccc2S(=O)(=O)C(C)C)n1 [NVP-TAE684] (first compound 1 µM, partner dose 0.08 µM) | 69.1 | 102 | 40.6 | 111 | 210 | 145 | 125 | 28.4 | 56.4 | 102 | 94.8 | 112 | 88.9 | 93.6 | 397 |
| Cc1ccc(NC(=O)c2cccc(N(C)C)c2)cc1NC(=O)c1ccc(O)cc1 + O=C(Nc1ccccc1)c1cc([N+](=O)[O-])ccc1Cl [GW9662] (first compound 2 µM, partner dose 2 µM) | 213 | 60.2 | 94.8 | 118 | 865 | 38.6 | 54 | 46.8 | 54.2 | 242 | 148 | 123 | 240 | 102 | 334 |
| Cc1cc(N2CCOCC2)cc2[nH]c(-c3c(NC[C@@H](O)c4cccc(Cl)c4)cc[nH]c3=O)nc12 + CCN(CC)CCCCNc1ncc2cc(-c3cc(OC)cc(OC)c3)c(NC(=O)NC(C)(C)C)nc2n1 [PD173074] (first compound 0.2 µM, partner dose 0.1 µM) | 104 | 169 | 81.2 | 115 | 34.3 | 126 | 124 | 419 | 42.4 | 91.3 | 62.8 | 125 | 48.5 | 97.5 | 132 |
| Cc1nc(Nc2ncc(C(=O)Nc3c(C)cccc3Cl)s2)cc(N2CCN(CCO)CC2)n1 [dasatanib] + O=C(Nc1ccccc1)c1cc([N+](=O)[O-])ccc1Cl [GW9662] (first compound 0.004 µM, partner dose 2 µM) | 214 | 58.8 | 52.4 | 49 | 126 | 38.7 | 58.5 | 177 | 37.8 | 326 | 226 | 146 | 65.9 | 82.6 | 347 |
| C[C@@H]1CCN(C(=O)CC#N)C[C@@H]1N(C)c1ncnc2[nH]ccc12 + CCN(CC)CCCCNc1ncc2cc(-c3cc(OC)cc(OC)c3)c(NC(=O)NC(C)(C)C)nc2n1 [PD173074] (first compound 1 µM, partner dose 0.1 µM) | 20.9 | 47.8 | 89.3 | 79.3 | 159 | 108 | 48.8 | 149 | 31 | 89.5 | 28.5 | 101 | 63.1 | 75.7 | 219 |
| C[C@@H]1CCN(C(=O)CC#N)C[C@@H]1N(C)c1ncnc2[nH]ccc12 + COC(=O)c1sccc1S(=O)(=O)Nc1ccc(Nc2ccccc2)cc1OC [GSK0660] (first compound 1 µM, partner dose 1 µM) | 119 | 169 | 47.6 | 73.3 | 142 | 49.2 | 134 | 66.7 | 291 | 31.5 | 101 | 319 | 72.7 | 78.9 | 161 |
| NC(=O)Nc1cc(-c2cccc(F)c2)sc1C(=O)N[C@H]1CCCNC1 + COc1cc2ncnc(Nc3ccc(Oc4ccccc4)cc3)c2cc1OC [SrcI1] (first compound 0.02 µM, partner dose 2 µM) | 53.4 | 81 | 196 | 75.2 | 164 | 66.7 | 29.7 | 58.1 | 41.4 | 107 | 134 | 151 | 80.9 | 171 | 32.3 |

Quoted at random: two records from the list

| SMILES | cleaved PARP positive nuclei fraction (MZ2-MEL) [%] | cleaved PARP positive nuclei fraction (MeWo) [%] | cleaved PARP positive nuclei fraction (RPMI7951) [%] | cleaved PARP positive nuclei fraction (RVH-421) [%] | cleaved PARP positive nuclei fraction (SkMel28) [%] | cleaved PARP positive nuclei fraction (SkMel30) [%] | cleaved PARP positive nuclei fraction (SkMel5) [%] | cleaved PARP positive nuclei fraction (UACC257) [%] | cleaved PARP positive nuclei fraction (UACC62) [%] | cleaved PARP positive nuclei fraction (WM115) [%] | cleaved PARP positive nuclei fraction (WM1716) [%] | cleaved PARP positive nuclei fraction (WM1745) [%] | cleaved PARP positive nuclei fraction (WM3526) [%] | cleaved PARP positive nuclei fraction (WM3619) [%] | cleaved PARP positive nuclei fraction (WM451Lu) [%] |
| --- | --- | --- | --- | --- | --- | --- | --- | --- | --- | --- | --- | --- | --- | --- | --- |
| C=CCn1c(=O)c2cnc(Nc3ccc(N4CCN(C)CC4)cc3)nc2n1-c1cccc(C(C)(C)O)n1 + O=C(O)C(=O)Nc1sc2c(c1C(=O)O)CCNC2 [TCS401] (first compound 0.02 µM, partner dose 1.66667 µM) | 227 | 58.2 | 86.5 | 49.4 | 168 | 41.3 | 91.6 | 93 | 255 | 50.8 | 51.5 | 136 | 335 | 109 | 57.8 |
| C[C@@H]1CCN(C(=O)CC#N)C[C@@H]1N(C)c1ncnc2[nH]ccc12 + O=c1cc(-c2cccc3c2Sc2ccccc2S3)oc(N2CCOCC2)c1 [KU55933] (first compound 1 µM, partner dose 1 µM) | 148 | 51.7 | 77.7 | 70 | 77.5 | 23.1 | 27.1 | 57.3 | 78.4 | 593 | 52.3 | 93.4 | 612 | 95 | 46.6 |
